Experimental data from patent US20250143290A1, “AGROCHEMICAL COMPOSITION COMPRISING AT LEAST ONE AGROCHEMICAL ACTIVE COMPONENT AND A SOLVENT” (MINAGRO SRL, priority 2022, published 2025).

Columns and labels:
[1] = tested on: wheat leaves; assay: Droplet behavior on wheat leaf fragment; set-up: key to Retention: 0.5: the droplets stick after more than 10 attempts; the droplets stick after 5 to 10 attempts; the droplets stick after 2 to 4 attempts; 3: the droplets stick immediately; key to Shape of the drop just after deposit / Shape of the drop during drying: 1: drop round (very little surface contact); 2: light spread; 3: moderate spread; 4: high spread; 5: very high spread
[2] = tested on: wheat leaves; assay: Penetration driving force on wheat leaves; set-up: key to Penetration: 1: no; 2: yes; key to Intensity of the penetration strength: 1: very light; 2: light; 3: medium; 4: high; conditions: wheat leaf, 2%; for Penetration: 1 μL droplet, 20° C.
[3] = tested on: soybean leaves; assay: Droplet behavior on soybean leaf fragment; set-up: key to Retention: 0.5: the droplets stick after more than 10 attempts; the droplets stick after 5 to 10 attempts; the droplets stick after 2 to 4 attempts; 3: the droplets stick immediately; key to Shape of the drop just after deposit / Shape of the drop during drying: 1: drop round (very little surface contact); 2: light spread; 3: moderate spread; 4: high spread; 5: very high spread

SMILES | Retention ([1]; 1%) | Shape of the drop during drying ([1]; 1%) | Shape of the drop just after deposit ([1]; 1%) | Retention ([1]; 2%) | Shape of the drop during drying ([1]; 2%) | Shape of the drop just after deposit ([1]; 2%) | Retention ([1]; 5%) | Intensity of the penetration strength [2] | Penetration [2] | Retention ([3]; 1%) | Shape of the drop during drying ([3]; 1%) | Shape of the drop just after deposit ([3]; 1%) | Retention ([3]; 2%) | Shape of the drop during drying ([3]; 2%) | Shape of the drop just after deposit ([3]; 2%) | Retention ([3]; 5%) | Shape of the drop during drying ([3]; 5%) | Shape of the drop just after deposit ([3]; 5%) | Shape of the drop during drying ([1]; 5%) | Shape of the drop just after deposit ([1]; 5%)
CC(C)(C)OCC1CCCO1 (stereo not drawn) [t-butyl THF, 2-(tert-Butoxymethyl)tetrahydrofuran] | 3 | 1 | 1 | 3 | 1 | 1 | 3 | 2 | 2 | 3 | 1 | 1 | 3 | 2 | 1 | 3 | 2 | 2 | – | –
CCCCOCC1CCCO1 (stereo not drawn) [n-butyl THF, 2-(butoxymetyl)tetrahydrofuraan] | 3 | 2 | 2 | 3 | 4 | 4 | 3 | 2 | 2 | 3 | 2 | 2 | 3 | – | – | 3 | 4 | 4 | 5 | 5
